Reference: paper PMC8730687
These are yes or no findings as the source states them, for the method shown. For part of these data: In cells and extracts the contact can be indirect. Some entries that bind do so weakly or less than the wild type. Where a sequence is shown, tags or fusion partners need not be part of it.

Sequences of proteins named here, by UniProt entry; tags and fusion partners are left off.
UniProt Q9FYA2: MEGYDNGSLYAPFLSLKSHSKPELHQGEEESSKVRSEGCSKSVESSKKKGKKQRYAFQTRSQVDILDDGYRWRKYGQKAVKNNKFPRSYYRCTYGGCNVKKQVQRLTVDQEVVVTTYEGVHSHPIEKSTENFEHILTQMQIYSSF

Key:
[1] = molecular target: WRKY75, full length, fused to the pGBKT7 binding domain (BD, bait) (Arabidopsis) (UniProt Q9FYA2); experiment: two-hybrid; WRKY75 and derivatives in pGBKT7 (BD, bait), SIB1 or SIB2 and derivatives in pGADT7 (AD, prey); yeast Y2H Gold; growth on selective media lacking Leu, Trp, His and Ade
[2] = molecular target: nLUC-WRKY75 (full-length WRKY75 in pCAMBIA1300-nLUC) (Arabidopsis) (UniProt Q9FYA2); experiment: split reporter; LUC complementation imaging (LCI): nLUC-WRKY75 and cLUC-SIB1 or cLUC-SIB2 co-expressed in N. benthamiana leaves by Agrobacterium EHA105; imaged with a cooled CCD after infiltration

binding [1]	binding [2]	Binder
binds		SIGMA FACTOR BINDING PROTEIN2 (SIB2), full length, fused to the pGADT7 activation domain (AD, prey) (protein, UniProt O80669 1-141) MDQSSSTLLINQRKSSSSPTRIPPKQKRKSTTTHKPIKVRYISNPMRVETCPSKFRELVQELTGQDAADLPPSPTTFTAVDLHRPCESEMNLEPLDGEVRGEYYSPLDEEVFNAPQMSAGLSGFFSSGFYNVNALGSIGSL
	binds	cLUC-SIB1 (full-length SIB1 in pCAMBIA1300-cLUC) (protein, UniProt Q9LDH1 55-151) ASKFRELVQELTGQDAVDLQPEPIYSPSSDDHNLSPPAENLAPRVLHQEPFGERDSDCYEPLNAEDMFLPDQMSAGFSGFFSNGFYNVNDFGSIDSM
	binds	cLUC-SIB2 (full-length SIB2 in pCAMBIA1300-cLUC) (protein, UniProt O80669 39-141) VRYISNPMRVETCPSKFRELVQELTGQDAADLPPSPTTFTAVDLHRPCESEMNLEPLDGEVRGEYYSPLDEEVFNAPQMSAGLSGFFSSGFYNVNALGSIGSL
